In patent US7501552 (GENPHARM INTERNATIONAL, dated 2009):
No constants are given. Whether binding was seen depends on the method and setting. Some results given as binding are weak or reduced against the parent protein; the word gives no strength.

Chains of the proteins cited; added tags and fusions are not shown. Residues count along the entry.
UniProt P79185, residues 26-458: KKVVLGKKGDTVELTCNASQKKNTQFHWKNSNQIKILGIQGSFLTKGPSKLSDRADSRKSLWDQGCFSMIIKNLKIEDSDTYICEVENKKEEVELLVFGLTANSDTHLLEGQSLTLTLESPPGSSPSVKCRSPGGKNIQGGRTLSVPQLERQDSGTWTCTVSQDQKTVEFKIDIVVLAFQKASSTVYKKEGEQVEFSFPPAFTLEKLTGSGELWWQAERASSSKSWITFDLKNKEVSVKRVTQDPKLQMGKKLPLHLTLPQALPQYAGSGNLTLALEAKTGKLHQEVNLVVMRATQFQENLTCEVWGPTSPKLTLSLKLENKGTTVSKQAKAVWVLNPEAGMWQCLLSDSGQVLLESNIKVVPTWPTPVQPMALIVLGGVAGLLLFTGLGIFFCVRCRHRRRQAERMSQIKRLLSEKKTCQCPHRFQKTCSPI
UniProt P16003, residues 26-458: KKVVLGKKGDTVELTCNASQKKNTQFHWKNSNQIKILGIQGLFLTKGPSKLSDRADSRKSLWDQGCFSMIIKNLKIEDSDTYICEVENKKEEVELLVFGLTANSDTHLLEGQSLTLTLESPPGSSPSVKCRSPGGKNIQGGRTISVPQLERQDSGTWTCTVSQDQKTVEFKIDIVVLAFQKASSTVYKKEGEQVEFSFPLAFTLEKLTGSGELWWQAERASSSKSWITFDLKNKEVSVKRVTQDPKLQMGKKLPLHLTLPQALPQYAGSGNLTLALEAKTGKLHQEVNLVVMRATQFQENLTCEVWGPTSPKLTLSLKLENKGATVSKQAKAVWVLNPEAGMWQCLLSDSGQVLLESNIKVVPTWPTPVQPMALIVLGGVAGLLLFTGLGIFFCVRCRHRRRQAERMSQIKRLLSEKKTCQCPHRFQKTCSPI

Experiments:
[1] = molecular target: T1, chimpanzee CD4 on lymphocytes (chimpanzee, UniProt P16004 26-458); assay: ex vivo flow cytometry of chimpanzee PBMC after infusion of the mAb: FITC goat anti-human Fcγ on CD4+ cells
T1 construct: whole, on cells; also called chimpanzee CD4 cells

[2] = molecular target: T1, chimpanzee CD4 on lymphocytes; assay: flow cytometry of PBMC after infusion into chimpanzees, FITC-goat anti-human Fcγ
[3] = molecular target: T2, cynomolgus monkey CD4 on lymphocytes (cynomolgus monkey, UniProt P79185 26-458); assay: restated in the half-life study
T2 construct: whole, on cells; also called cynomolgus CD4 cells

[4] = molecular target: T2, cynomolgus monkey CD4 on lymphocytes; assay: flow cytometry of PBMC after infusion into cynomolgus monkeys
[5] = molecular target: T1, chimpanzee CD4 on lymphocytes; assay: flow cytometry of chimpanzee lymph node cells after infusion
[6] = molecular target: T2, cynomolgus monkey CD4 on lymphocytes; assay: as described in Example 43
[7] = molecular target: T2, cynomolgus monkey CD4 on lymphocytes; assay: as found in Example 43 (flow cytometry)
[8] = molecular target: T1, chimpanzee CD4 on lymphocytes; assay: as found in Example 43 (flow cytometry)
[9] = molecular target: T3, rhesus monkey CD4 on lymphocytes (rhesus monkey, UniProt P16003 26-458); assay: as found in Example 43 (flow cytometry)
T3 construct: whole, on cells; also called rhesus CD4 cells

[10] = molecular target: native human CD4 on the cell surface (human) (UniProt P01730); assay: flow cytometry on CD4+ SupT1 cells, FITC goat anti-human Fcγ
[11] = molecular target: T1, chimpanzee CD4 on lymphocytes; assay: ex vivo flow cytometry of chimpanzee inguinal lymph node lymphocytes after infusion of the mAb: FITC goat anti-human Fcγ on CD4+ cells
[12] = molecular target: T2, cynomolgus monkey CD4 on lymphocytes; assay: flow cytometry on peripheral blood lymphocytes
Method: (§1) It is further desirable for some purposes that the animal be a non-human primate that expresses CD4 comprising a cross-reactive epitope with human CD4 such that it is recognized by the monoclonal antibody. […] Peripheral blood lymphocytes were isolated from whole blood of chimpanzee, rhesus, and cynomolgus monkeys. […] The stained cells were then analyzed by flow cytometry to determine if each of the human monoclonal antibodies bound to endogenous CD4 on the surface of lymphocytes from each of these three non-human primates.

[13] = molecular target: T1, chimpanzee CD4 on lymphocytes; assay: flow cytometry on peripheral blood lymphocytes
Method: as §1

[14] = molecular target: T3, rhesus monkey CD4 on lymphocytes; assay: flow cytometry on peripheral blood lymphocytes
Method: as §1

[15] = molecular target: native human CD4 on the cell surface (human) (UniProt P01730); assay: flow cytometry on SupT1 cells
[16] = molecular target: T2, cynomolgus monkey CD4 on lymphocytes; assay: ex vivo flow cytometry of cynomolgus PBMC after infusion of the mAb: FITC goat anti-human Fcγ on CD4+ (OKT4+) cells
[17] = molecular target: T1, chimpanzee CD4 on lymphocytes; assay: MCF HuMAb on chimpanzee lymph node CD4+ cells, flow cytometry
[18] = molecular target: native human CD4 on the cell surface (human) (UniProt P01730); assay: ELISA and flow cytometry on SupT1 cells
[19] = molecular target: native human CD4 on the cell surface (human) (UniProt P01730); assay: two-colour flow cytometry on human PBMC
[20] = molecular target: native human CD4 on the cell surface (human) (UniProt P01730); assay: flow cytometry on SupT1 cells preincubated with stain buffer, RPA-T4 or Leu-3a; supernatant 1:2, FITC goat anti-human Fcγ

binding [1]: binds | binding [2]: binds | binding [3]: binds | binding [4]: binds | binding [5]: binds | binding [6]: binds | binding [7]: binds | binding [8]: binds | binding [9]: binds | binding [10]: binds | binding [11]: binds | binding [12]: binds | binding [13]: binds | binding [14]: binds | binding [15]: binds | binding [16]: binds | binding [17]: binds | binding [18]: binds | binding [19]: binds | binding [20]: binds
B1: 6G5 (antibody, human IgG1, V domains shown)
VH: QVQLQQWGAGLLKPSETLSLTCAVYGGSFSGYYWSWIRQPPGKGLEWIGEINHSGSTNYNPSLKSRVTISVDTSKNQFSLKLSSVTAADTAVYYCARVINWFDPWGQGTLVTVSS
VL: DIQMTQSPSSVSASVGDRVTITCRASQDISSWLAWYQHKPGKAPKLLIYAASSLQSGVPSRFSGSGSGTDFTLTISSLQPEDFATYYCQQANSFPYTFGQGTKLEIK
